For one molecule, binding results are on record in patent US20060174355A1.

Test [1] deals with T1, GST-ERR3 (glutathione S-transferase-fused ERR3) (human) (UniProt P62508).
T1 sequence (looked up): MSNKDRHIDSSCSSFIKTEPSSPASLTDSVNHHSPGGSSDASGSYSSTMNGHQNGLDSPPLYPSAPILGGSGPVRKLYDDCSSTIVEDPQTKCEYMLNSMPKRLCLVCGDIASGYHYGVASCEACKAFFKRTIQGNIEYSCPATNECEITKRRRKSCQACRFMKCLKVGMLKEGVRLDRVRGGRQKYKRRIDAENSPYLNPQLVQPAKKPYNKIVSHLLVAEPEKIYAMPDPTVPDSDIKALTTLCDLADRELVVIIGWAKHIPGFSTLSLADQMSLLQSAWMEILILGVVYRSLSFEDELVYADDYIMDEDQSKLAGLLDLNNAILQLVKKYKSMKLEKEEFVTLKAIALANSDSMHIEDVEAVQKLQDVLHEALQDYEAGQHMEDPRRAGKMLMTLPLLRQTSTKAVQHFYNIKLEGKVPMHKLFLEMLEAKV
Kind of test: GST pull-down, autoradiograph (FIG. 3D).

Test [2] addresses T1, GST-ERR3 (glutathione S-transferase-fused ERR3) (human). Kind of test: GST pull-down of in vitro translated 35S-ERRL1, SDS-PAGE and autoradiography.

These are yes or no findings as the source states them, for the method shown. In cells and extracts the contact can be indirect. Some binding calls cover weakened binding; strength is not graded here. Where a sequence is shown, tags or fusion partners need not be part of it.

B1: ERRL1 (ERR ligand 1), mouse (ligand)
chain: MAGNDCGALLDEELSSFFLNYLSDTQGGDSGEEQLCADLPELDLSQLDASDFDSATCFGELQWCPETSETEPSQYSPDDSELFQIDSENEALLAALTKTLDDIPEDDVGLAAFPELDEGDTPSCTPASPAPLSAPPSPTLERLLSPASDVDELSLLQKLLLATSSPTASSDALKDGATWSQTSLSSRSQRPCVKVDGTQDKKTPTLRAQSRPCTELHKHLTSVLPCPRVKACSPTPHPSPRLLSKEEEEEVGEDCPSPWLTPASPQDSLAQDTASPDSAQPPEEDVRAMVQLIRYMHTYCLPQRKLPQRAPEPIPQACSSLSRQVQPRSRHPPKAFWTEFSILRELLAQDILCDVSKPYRLAIPVYASLTPQSRPRPPKDSQASPAHSAMAEEVRITASPKSTGPRPSLRPLRLEVKRDVNKPTRQKREEDEEEEEEEEEEEEEKEEEEEEWGRKRPGRGLPWTKLGRKMDSSVCPVRRSRRLNPELGPWLTFTDEPLGALPSMCLDTETHNLEEDLGSLTDSSQGRQLPQGSQIPALESPCESGCGDTDEDPSCPQPTSRDSSRCLMLALSQSDSLGKKSFEESLTVELCGTAGLTPPTTPPYKPMEEDPFKPDTKLSPGQDTAPSLPSPEALPLTATPGASHKLPKRHPERSELLSHLQHATTQPVSQAGQKRPFSCSFGDHDYCQVLRPEAALQRKVLRSWEPIGVHLEDLAQQGAPLPTETKAPRREANQNCDPTHKDSMQLRDHEIRASLTKHFGLLETALEGEDLASCKSPEYDTVFEDSSSSSGESSFLLEEEEEEEEGGEEDDEGEDSGVSPPCSDHCPYQSPPSKASRQLCSRSRSSSGSSSCSSWSPATRKNFRRESRGPCSDGTPSVRHARKRREKAIGEGRVVYIRNLSSDMSSRELKKRFEVFGEIVECQVLTRSKRGQKHGFITFRCSEHAALSVRNGATLRKRNEPSFHLSYGGLRHFRWPRYTDYDPTSEESLPSSGKSKYEAMDFDSLLKEAQQSLH
Turning to B1, the binding result in test [1] and in test [2] was “binds” each time.
